Source: the supplement of paper PMC10663445
Counter-ions that a name gives are not always drawn. Some of the results follow. Single values are uncertain, as repeats are few or missing.

These compounds were tested on hsa-miR-132-3p (assay: miR-132-3p level in NGN2-iNs after compound treatment (TMM-normalised, ComBat batch-corrected) (batch-corrected normalised expression (arbitrary units)); higher = higher miR-132-3p expression). Conditions: 10 µM; 24 h; human iPSC-derived NGN2 neurons (BR43).

SMILES	miR-132-3p level in NGN2-iNs
CCC(CC)CC1(C(=O)Nc2ccccc2SC(=O)C(C)C)CCCCC1	1.07
CNC(=O)Nc1ccc(-c2nc(N3CC4CCC(C3)O4)c3cnn(C4CCC5(CC4)OCCO5)c3n2)cc1	-1.11
C[C@@H](CN1CC(=O)NC(=O)C1)N1CC(=O)NC(=O)C1 [Dexrazoxane HCl (ICRF-187, ADR-529)]	0.549
CC(=O)OCC(=O)[C@@]12N=C(C)O[C@@H]1C[C@H]1[C@@H]3CCC4=CC(=O)C=C[C@]4(C)[C@H]3[C@@H](O)C[C@@]12C [Deflazacort]	2.36
CCN1CC(CCN2CCOCC2)C(c2ccccc2)(c2ccccc2)C1=O (configuration not stated) [Doxapram HCl]	-0.44
CCC(=O)O[C@]1(C(=O)CCl)[C@@H](C)C[C@H]2[C@@H]3C[C@H](F)C4=CC(=O)C=C[C@]4(C)[C@@]3(F)[C@@H](O)C[C@@]21C [Halobetasol Propionate]	-0.901
CC(=O)N[C@H]1[C@H]([C@H](O)[C@H](O)CO)OC(C(=O)O)=C[C@@H]1NC(=N)N [Zanamivir]	-0.152
CCOC(=O)OC(C)OC1=C(C(=O)Nc2ccccn2)N(C)S(=O)(=O)c2ccccc21 (configuration not stated) [Ampiroxicam]	-0.184
O=C(Nc1c(Cl)cncc1Cl)c1ccc(OC(F)F)c(OCC2CC2)c1 [Roflumilast]	3.08
CCCS(=O)(=O)Nc1ccc(F)c(C(=O)c2c[nH]c3ncc(-c4ccc(Cl)cc4)cc23)c1F [Vemurafenib (PLX4032, RG7204)]	1.36
C[C@@H]1O[C@@H](O[C@H]2[C@H](Oc3cc(O)c(C(=O)CCc4ccc(O)cc4)c(O)c3)O[C@H](CO)[C@@H](O)[C@@H]2O)[C@H](O)[C@H](O)[C@H]1O [Naringin Dihydrochalcone]	0.154
O=S(=O)(O)CCS [Mesna]	-0.565
Cc1nc(NC(=O)N2CCC[C@H]2C(N)=O)sc1-c1ccnc(C(C)(C)C(F)(F)F)c1 [Alpelisib (BYL719)]	-1.09
CC(C)NCC(O)COc1cccc2ccccc12 (configuration not stated) [Propranolol HCl]	0.44
COC(=O)[C@@H]1[C@H]2C[C@H]3c4[nH]c5ccccc5c4CCN3C[C@@H]2CC[C@@H]1O [Yohimbine HCl]	-0.796
CN(C)CCSSCCNC(=O)C1CCN(C(=O)CSc2ccc(Cl)cc2)CC1	0.749
CC(C)C[C@H](NC(=O)[C@H]1O[C@@H]1C(=O)O)C(=O)NCCCCN=C(N)N	1.44
CN(C)Cc1ccc(-c2nc3cccc4c3n2CCNC4=O)cc1	-1.22
O=C(/C=C\n1cnc(-c2cc(C(F)(F)F)cc(C(F)(F)F)c2)n1)NNc1cnccn1 [Selinexor (KPT-330)]	0.74

SMILES	miR-132-3p level in NGN2-iNs
Cc1coc2c1C(=O)C(=O)c1c-2ccc2c(C)cccc12 [Tanshinone I]	0.858
CCC1=C(C)CN(C(=O)NCCc2ccc(S(=O)(=O)NC(=O)N[C@H]3CC[C@H](C)CC3)cc2)C1=O [Glimepiride]	0.252
Cc1ccccc1-n1c(Cn2nc(-c3cccc(O)c3)c3c(N)ncnc32)nc2cccc(C)c2c1=O	-2.28
C[C@@]12C[C@@]3(O)O[C@@H](O1)[C@]1(COC(=O)c4ccccc4)[C@H]3C[C@@]12O[C@@H]1O[C@H](CO)[C@@H](O)[C@H](O)[C@H]1O [Paeoniflorin]	-0.599
O=C1CCc2cc(OCCCCc3nnnn3C3CCCCC3)ccc2N1 [Cilostazol]	-0.142
CCS(=O)(=O)CCn1c([N+](=O)[O-])cnc1C [Tinidazole]	-1.04
N#C[C@@H]1C[C@@H]2C[C@@H]2N1C(=O)[C@@H](N)C12CC3CC(CC(O)(C3)C1)C2 [Saxagliptin]	-2.81
CCCCOc1cc(C(=O)NCCN(CC)CC)c2ccccc2n1 [Dibucaine HCl]	0.171
COc1ccc2cc1Oc1ccc(cc1)C[C@H]1c3cc(c(OC)cc3CCN1C)Oc1c(OC)c(OC)cc3c1[C@H](C2)N(C)CC3 [Tetrandrine]	0.691
Nc1ncnc2c1c(-c1cnc3[nH]ccc3c1)nn2C1CCCC1	0.924
Cc1cc(OCCCS(C)(=O)=O)cc(C)c1-c1cccc(COc2ccc3c(c2)OCC3CC(=O)O)c1 (configuration not stated) [Fasiglifam(TAK-875) Hemihydrate]	-0.0477
CCCCOc1c(C(=O)c2c(F)cc(C)cc2F)c[nH]c2nncc1-2	-0.681
N=C(N)NC(=O)c1nc(Cl)c(N)nc1N [Amiloride HCl]	0.591
CN(C)C(=O)COC(=O)Cc1ccc(OC(=O)c2ccc(NC(=N)N)cc2)cc1 [Camostat Mesilate]	-1.3
C[C@H]1COC2=C1C(=O)C(=O)c1c2ccc2c1CCCC2(C)C [Cryptotanshinone]	-0.982
NC(=O)Cc1cccc(C(=O)c2ccccc2)c1N [Nepafenac]	0.939
CC[C@H]1OC(=O)[C@H](C)[C@@H](O[C@H]2C[C@@](C)(OC)[C@@H](O)[C@H](C)O2)[C@H](C)[C@@H](O[C@@H]2O[C@H](C)C[C@H](N(C)C)[C@H]2O)[C@](C)(OC)C[C@@H](C)C(=O)[C@H](C)[C@@H](O)[C@]1(C)O [Clarithromycin]	-0.322
NS(=O)(=O)c1cc2c(cc1Cl)N=CNS2(=O)=O [Chlorothiazide]	-0.622

2 entries from above, field by field:
Cc1coc2c1C(=O)C(=O)c1c-2ccc2c(C)cccc12 [Tanshinone I]
  miR-132-3p level in NGN2-iNs: 0.858
CC[C@H]1OC(=O)[C@H](C)[C@@H](O[C@H]2C[C@@](C)(OC)[C@@H](O)[C@H](C)O2)[C@H](C)[C@@H](O[C@@H]2O[C@H](C)C[C@H](N(C)C)[C@H]2O)[C@](C)(OC)C[C@@H](C)C(=O)[C@H](C)[C@@H](O)[C@]1(C)O [Clarithromycin]
  miR-132-3p level in NGN2-iNs: -0.322
